Our source for the survivor count and T/C values is PubChem BioAssay AID330 (DTP/NCI, 2004).

The list is a part of this screen's results and no random one: it gathers tests that were run many times, whatever their T/C, doses with no T/C, and many T/C values between a quarter and a half above the control. Further doses and runs are listed elsewhere. T/C is the treated group as % of the vehicle group. Some entries give survivors of the animals treated and no T/C: the source holds a T/C of zero for them, seemingly a mark for toxic or unscored doses. Some doses without a T/C left all or most animals alive at the check, yet need not have been tolerated: the source hardly ever lists a survival T/C far under the control, and the zero likely stands for such cases as well. Survivors were counted at the toxicity check, usually on the fifth day, unless a day is given; later deaths do not show. Schedule codes are those of the source, taken here to give the interval after Q, in days (D) or hours (H), and the number of doses after X. Some entries were tested several times; the results are listed from low to high. Where survival is the endpoint, this PubChem deposit counts one and a half times the control or more as active, and values a quarter to a half above the control carry no call in these data; other NCI protocols may use other cut-offs. Some T/C values carry the count of animals alive at the toxicity check (mostly the fifth day); where none is given, no animal had died by that day.

The subject of this experiment is P388 leukemia ip, CD2F1 mice, survival T/C. Nature of the experiment: NCI In Vivo Anticancer Drug Screen. Data for tumor model P388 Leukemia (intraperitoneal) in CD2F1 (CDF1) mice. The conditions noted are these: T/C endpoint: median survival time, higher T/C = longer survival.
Setting [1] is: dose: 50.0 mg/kg/injection, schedule: Q01DX009 (ip), vehicle: Klucel (hydroxypropylcellulose) (HPC).
The mark [2] stands for this setting: dose: 100.0 mg/kg/injection, schedule: Q01DX009 (ip), vehicle: Klucel (hydroxypropylcellulose) (HPC).
The mark [3] stands for this setting: dose: 200.0 mg/kg/injection, schedule: Q01DX009 (ip), vehicle: Klucel (hydroxypropylcellulose) (HPC).
The mark [4] stands for this setting: dose: 50.0 mg/kg/injection, schedule: Q01DX009 (ip), vehicle: saline.
Where [5] appears, read: dose: 100.0 mg/kg/injection, schedule: Q01DX009 (ip), vehicle: saline.
Setting [6] is: dose: 200.0 mg/kg/injection, schedule: Q01DX009 (ip), vehicle: saline.
The mark [7] stands for this setting: dose: 100.0 mg/kg/injection, schedule: Q01DX009 (ip), vehicle: water.
Where [8] appears, read: dose: 12.5 mg/kg/injection, schedule: Q01DX009 (ip), vehicle: saline with Tween-80.
Where [9] appears, read: dose: 200.0 mg/kg/injection, schedule: Q04DX003 (ip), vehicle: saline with Tween-80.

Turning to `CSC(=S)N/N=C\C(O)C(O)C(O)C(O)CO` (stereo not given), the survivor count reads like this: (dose: 100.0 mg/kg/injection, schedule: Q04DX003 (ip), vehicle: saline) 0 of 6; (dose: 200.0 mg/kg/injection, schedule: Q04DX003 (ip), vehicle: saline) 0 of 6; (dose: 400.0 mg/kg/injection, schedule: Q04DX003 (ip), vehicle: saline) 0 of 6.

Turning to `O=c1cc(-c2ccccc2)c2ccc(O)c(CN(CCO)CCO)c2o1`, the survivor count (dose: 400.0 mg/kg/injection, schedule: Q04DX002 (ip), vehicle: saline with Tween-80) is on record as 6 of 6.

Turning to `C=C1C(=O)OC2CC1C(O)C/C(C)=C/CC/C(C)=C/C(O)CC2C` (stereo not given), the survivor count is listed as 6 of 6 under setting [1], 0 of 6 under setting [2] and 0 of 6 under setting [3].

Take `CC(C)(C)N=C(CCNC1CCCCC1)Nc1c(Cl)cccc1Cl`: the survivor count (dose: 200.0 mg/kg/injection, schedule: Q01DX009 (ip), vehicle: saline with Tween-80) is reported as 3 of 6.

For the molecule `C1CNC2NCCNC2N1` (stereo not given), the T/C is 136 % of control under setting [4] and 131 % of control [5 of 6 alive] under setting [5]. For the same molecule, the survivor count under setting [6] is on record as 4 of 6.

Regarding `Cc1ccc2c(ccc(CC(=S)[S-])[n+]2C)c1`, the T/C is, setting by setting: under setting [1], 126 % of control; under setting [2], 130 and 140 % of control. Further, the survivor count under setting [3] was 0 of 6 and 6 of 6.

With `CC(=O)[OH+]c1c(I)cc(I)cc1C(=O)[O-].CC(=O)[OH+]c1c(I)cc(I)cc1C(=O)[O-].[Cu+2]`, the survivor count (dose: 120.0 mg/kg/injection, schedule: Q01DX005 (ip), vehicle: saline) is given as 2 of 6 and the survivor count (dose: 240.0 mg/kg/injection, schedule: Q01DX005 (ip), vehicle: saline) is listed as 0 of 6.

Take `CCOC(=O)N1CCN(c2cc(C)nc3cc(OC)ccc23)CC1`: under “dose: 240.0 mg/kg/injection, schedule: Q01DX005 (ip), vehicle: saline with Tween-80”, the survivor count is listed as 4 of 6.

Take `[Cl][Sn]([c]1cccc2ccccc12)[c]1cccc2ccccc12`: the T/C was 133 % of control (dose: 3.12 mg/kg/injection, schedule: Q01DX005 (ip), vehicle: Klucel (hydroxypropylcellulose) (HPC)); 145 % of control (dose: 6.25 mg/kg/injection, schedule: Q01DX005 (ip), vehicle: Klucel (hydroxypropylcellulose) (HPC)); 139 % of control (dose: 12.5 mg/kg/injection, schedule: Q01DX005 (ip), vehicle: Klucel (hydroxypropylcellulose) (HPC)). In addition, the survivor count is 0 of 6 (dose: 50.0 mg/kg/injection, schedule: Q01DX005 (ip), vehicle: Klucel (hydroxypropylcellulose) (HPC)); 0 of 6 (dose: 100.0 mg/kg/injection, schedule: Q01DX005 (ip), vehicle: Klucel (hydroxypropylcellulose) (HPC)); 0 of 6 (dose: 200.0 mg/kg/injection, schedule: Q01DX005 (ip), vehicle: Klucel (hydroxypropylcellulose) (HPC)).

Consider `O=C(O)C1C(C(=O)O)C2(Cl)C(Cl)=C(Cl)C1(Cl)C2(Cl)Cl.[Cu+2]` (stereo not given), for which the survivor count (dose: 200.0 mg/kg/injection, schedule: Q01DX001 (ip), vehicle: saline sonified) is on record as 0 of 6.

On to `CC1Oc2cc3c(-c4c(O)cc(O)c5c(O)c6c(cc45)OC(C)C(C)C6=O)c(O)cc(O)c3c(O)c2C(=O)C1C` (stereo not given), for which the T/C (dose: 5.0 mg/kg/injection, schedule: Q01DX005 (ip), vehicle: saline) was 136 % of control.

For the molecule `CC([NH-])CC(C)[NH-].[Cl][Pt+2][Cl]` (stereo not given), the T/C reads like this: (dose: 1.56 mg/kg/injection, schedule: Q04DX002 (ip), vehicle: saline with Tween-80) 133 % of control; (dose: 3.12 mg/kg/injection, schedule: Q04DX002 (ip), vehicle: saline with Tween-80) 145 % of control. Besides, the survivor count by setting is: (dose: 12.5 mg/kg/injection, schedule: Q04DX002 (ip), vehicle: saline with Tween-80) 6 of 6; (dose: 25.0 mg/kg/injection, schedule: Q04DX002 (ip), vehicle: saline with Tween-80) 4 of 6 and 6 of 6.

As for `CC(=O)OCC1OC(S[As](C2CCCCC2)C2CCCCC2)C(OC(C)=O)C(OC(C)=O)C1OC(C)=O` (stereo not given), the survivor count runs as follows: (dose: 100.0 mg/kg/injection, schedule: Q04DX003 (ip), vehicle: Klucel (hydroxypropylcellulose) (HPC)) 4 of 6; (dose: 200.0 mg/kg/injection, schedule: Q04DX003 (ip), vehicle: Klucel (hydroxypropylcellulose) (HPC)) 2 of 6; (dose: 400.0 mg/kg/injection, schedule: Q04DX003 (ip), vehicle: Klucel (hydroxypropylcellulose) (HPC)) 2 of 6.

On to `CC1=C(Cl)CC(/C(C)=C/Cl)OC1(O)CBr` (stereo not given), for which the survivor count is 5 of 6 (dose: 0.75 mg/kg/injection, schedule: Q01DX009 (ip), vehicle: Klucel (hydroxypropylcellulose) (HPC)); 4 of 6 (dose: 1.5 mg/kg/injection, schedule: Q01DX009 (ip), vehicle: Klucel (hydroxypropylcellulose) (HPC)); 0 of 6 (dose: 3.0 mg/kg/injection, schedule: Q01DX009 (ip), vehicle: Klucel (hydroxypropylcellulose) (HPC)).

Regarding `Cc1cc2nc(NN=O)sc2cc1C`, the T/C under setting [7] is 126 % of control. Besides, the survivor count (dose: 200.0 mg/kg/injection, schedule: Q01DX009 (ip), vehicle: water) is recorded as 0 of 6.

In the case of `COc1ccc(Cl)cc1NC(=O)Oc1ccncc1`, the survivor count was 6 of 6 (dose: 6.25 mg/kg/injection, schedule: Q01DX009 (ip), vehicle: saline with Tween-80); 6 of 6 under setting [8]; 5 of 6 and 6 of 6 (dose: 25.0 mg/kg/injection, schedule: Q01DX009 (ip), vehicle: saline with Tween-80); 6 of 6 (dose: 50.0 mg/kg/injection, schedule: Q01DX009 (ip), vehicle: saline with Tween-80); 6 of 6 (dose: 100.0 mg/kg/injection, schedule: Q01DX009 (ip), vehicle: saline with Tween-80).

For `Cc1cc([N+](=O)[O-])c(Cl)cc1NS(=O)(=O)c1ccccc1`, the survivor count under setting [9] is 5 of 6.

`[Cl][Co][Cl].[O-][n+]1c2ccccc2nc2ccccc21`: the T/C (dose: 100.0 mg/kg/injection, schedule: Q04DX003 (ip), vehicle: saline with Tween-80) was 126 % of control [5 of 6 alive]. Also, the survivor count is 0 of 6 under setting [9] and 0 of 6 (dose: 400.0 mg/kg/injection, schedule: Q04DX003 (ip), vehicle: saline with Tween-80).

For the molecule `C[N+]1(C)CCOCC1`, the survivor count is, setting by setting: (dose: 3.12 mg/kg/injection, schedule: Q01DX009 (ip), vehicle: saline) 6 of 6; under setting [4], 0 of 6; under setting [5], 0 of 6; under setting [6], 0 of 6.

On to `[NH-]CC(=O)O.[NH-]CC(=O)O.[Pt+2]`, for which the T/C reads like this: (dose: 25.0 mg/kg/injection, schedule: Q01DX009 (ip), vehicle: distilled water + Tween-80) 126 % of control; (dose: 50.0 mg/kg/injection, schedule: Q01DX009 (ip), vehicle: water) 133 % of control; under setting [7], 138 % of control. For the setting “dose: 400.0 mg/kg/injection, schedule: Q01DX009 (ip), vehicle: distilled water + Tween-80”, the survivor count is recorded as 6 of 6.

For the molecule `CN(C)C(=O)Oc1ccc(OC(=O)N(C)C)c2ccccc12`, the survivor count (dose: 50.0 mg/kg/injection, schedule: Q01DX001 (ip), vehicle: Klucel (hydroxypropylcellulose) (HPC)) is listed as 2 of 6; the survivor count (dose: 100.0 mg/kg/injection, schedule: Q01DX001 (ip), vehicle: Klucel (hydroxypropylcellulose) (HPC)) is 0 of 6 and 1 of 6; the survivor count (dose: 200.0 mg/kg/injection, schedule: Q01DX001 (ip), vehicle: Klucel (hydroxypropylcellulose) (HPC)) was 0 of 6; the survivor count (dose: 400.0 mg/kg/injection, schedule: Q01DX001 (ip), vehicle: Klucel (hydroxypropylcellulose) (HPC)) is 0 of 6.

In the case of `C=CC(C)(C)C12CC3C(=O)N/C(=C\c4cnc[nH]4)C(=O)N3C1Nc1ccccc12` (stereo not given), the survivor count under setting [8] is 6 of 6.

For `Cc1ccc(C2(c3ccccc3)OC3OC=CC32)cc1` (stereo not given), for the setting “dose: 120.0 mg/kg/injection, schedule: Q01DX005 (ip), vehicle: saline with Tween-80”, the survivor count is on record as 5 of 6.
